Taken from: PubChem BioAssay AID686943 (Drosophila RNAi Screening Center, 2013)

Purpose: 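Search across the genome for regulators of signalling from receptor tyrosine kinase to ERK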 (primary screen)
Cells: Drosophila S2R+ haemocyte-like cells expressing YFP-tagged ERK (Rolled)
Knock-down reagent: long dsRNA against Drosophila genes
Challenge: insulin stimulation versus unstimulated cells; dose and duration not given
Measured: 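Per-plate z-scores of phospho-ERK immunostaining normalised to YFP-tagged ERK, measured with and without insulin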
Reading the numbers: replicate 1, z-score of dpERK with insulin and replicate 2, z-score of dpERK with insulin: higher = more active ERK per ERK-YFP after insulin; replicate 1, z-score of dpERK under basal conditions: higher = more basal active ERK per ERK-YFP
The screen tested about 23,000 reagents; below is a random part of those with a known target gene and a result. 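Extra replicates exist only for a retested subset of genes; insulin dose and duration not given; both raised and lowered dpERK matter.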 A plus sign joins genes that one reagent is predicted to hit. Not all columns of the deposit are shown. Not given: the amount of reagent, the time to read-out.

| target | amplicon | replicate 1, z-score of dpERK with insulin | replicate 2, z-score of dpERK with insulin | replicate 1, z-score of dpERK under basal conditions |
| --- | --- | --- | --- | --- |
| Or47a | DRSC07491 | 0.18 | -0.81 | -0.53 |
| Madm | DRSC12129 | -0.12 | -0.17 | 0.35 |
| CG34409 | DRSC14577 | 0.26 | -0.05 | -0.4 |
| CG34409 | DRSC21667 | 0.77 | 0.79 | -0.46 |
| brm | DRSC11330 | -2.75 | -2.17 | -1.81 |
| ATPsynbeta | DRSC17194 | 0.14 | 0.13 | -0.87 |
| CG11257 | DRSC06068 | -0.28 | 0 | 1.38 |
| CG8841 | DRSC07286 | -0.34 | 0.14 | -0.01 |
| phu | DRSC16390 | 0.02 | 0.21 | 0.48 |
| CG12376 | DRSC06144 | 0.37 | 0.11 | -0.17 |
| Send1 | DRSC00482 | -0.25 | 0.26 | -0.6 |
| Pak | DRSC12602 | -0.69 | -0.04 | -1.26 |
| Set8 | DRSC15473 | 0.58 | -0.41 | 0.33 |
| en | DRSC07609 | -0.24 | -0.44 | -0.63 |
| CG11999 | DRSC12185 | 0.05 | -0.33 | 1.6 |
| Spn42Da | DRSC05025 | -0.03 | -0.02 | 0.58 |
| DhpD | DRSC12288 | -0.02 | 0.11 | 0.38 |
| Cox10 | DRSC02804 | -0.09 | 0.49 | -0.17 |
| Ak3 | DRSC16075 | -0.11 | -0.03 | 0.13 |
| gukh | DRSC14768 | 0.14 | -0.26 | -0.68 |
| gukh | DRSC15806 | 0.31 | -0.33 | -0.56 |
| gukh | DRSC15944 | 0.1 | 0.43 | 0.28 |
| Tpc1 | DRSC15614 | -2.6 | -2.58 | -0.61 |
| Tpc1 | DRSC16074 | -0.01 | -0.1 | -0.07 |
| CR6900 | DRSC20018 | -0.05 | 0.31 | 0.76 |
| CG13560 | DRSC04198 | 1.09 | 1.19 | 0.56 |
| Nelf-E | DRSC10567 | 0.21 | 0.48 | – |
| betaTub65B | DRSC11393 | -0.13 | 0.08 | – |
| CG15373 | DRSC19663 | -0.59 | 0.09 | -0.49 |
| CG3065 | DRSC04333 | -0.09 | 0.72 | 0.2 |
| CHOp24 | DRSC18310 | 0.85 | 0.41 | -0.72 |
| CG32221 | DRSC09638 | -0.09 | 0.87 | -0.5 |
| Cpes | DRSC04475 | 0.96 | -0.22 | -0.66 |
| CG30109 + CG30108 | DRSC05674 | 0.17 | 0 | -0.17 |
| CG15279 | DRSC01935 | 0.02 | 0.51 | 0.31 |
| RpL41 | DRSC22958 | 0.65 | -0.31 | -0.85 |
| CG8042 | DRSC09676 | 0.04 | -0.1 | -0.34 |
| CG9117 | DRSC03141 | 0.74 | 0.29 | 0.6 |
| Nos | DRSC03381 | 0.52 | 0.24 | -0.38 |

An excerpt from above, showing only “replicate 1, z-score of dpERK under basal conditions”:
CG11999 [DRSC12185] = 1.6
Spn42Da [DRSC05025] = 0.58
DhpD [DRSC12288] = 0.38
Cox10 [DRSC02804] = -0.17
Ak3 [DRSC16075] = 0.13
